# In paper PMC7819943, “Rice protein-binding microarrays: a tool to detect cis-acting elements near promoter regions in rice”:
# Sequences of proteins named here, by UniProt entry; tags and fusion partners are left off.
# UniProt Q0JBA9, entry or part of it: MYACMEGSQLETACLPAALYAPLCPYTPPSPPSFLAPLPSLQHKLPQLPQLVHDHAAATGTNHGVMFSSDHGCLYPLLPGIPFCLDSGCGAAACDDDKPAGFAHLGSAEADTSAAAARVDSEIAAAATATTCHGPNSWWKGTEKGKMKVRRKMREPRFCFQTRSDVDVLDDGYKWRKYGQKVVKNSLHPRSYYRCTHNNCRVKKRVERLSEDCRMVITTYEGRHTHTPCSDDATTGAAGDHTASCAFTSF
# This is one part of the list.
# Target: OsWRKY34 (Oryza sativa, UniProt Q0JBA9 1-250)
# Assay: protein-binding microarray (RPBM); PBS, 2% BSA, 51.3 ng/ul salmon testes DNA, 50 uM zinc acetate, 200 nM TF, 25 C, 1 h; high values mean tight binding
# Conditions: protein: recombinant; tags: N-terminal polyhistidine and DsRed monomer fusion (pET32a); label: CyDye5-dUTP incorporated in the synthesized complementary strand; 3' TTTTT single-stranded linker to array surface; dsDNA, one strand shown
# In short: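 Binding signal here means per-feature fluorescence intensity in arbitrary units. The values were read on an Axon 4000B scanner after a custom Agilent array, double-stranded by primer extension with Cy5-dUTP, was incubated with 200 nM protein at 25 °C for 1 h in PBS with 2% BSA, salmon testes DNA and 50 µM zinc acetate, then washed. The proteins were transcription factors with an N-terminal polyhistidine tag and DsRed, expressed in E. coli BL21-CodonPlus and purified on Ni–NTA.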
row,Sequence,binding signal
1,CCTCTCTCTGCTCTCGCCTTCTTACCATCTCACATTCCTTCGGAGTCACCTAGTGCAG,10700 fluorescence intensity (a.u.)
2,CGTGCACATCCTCGTCAGCTTCGTCGTCCACCACCGTCGACGGAGTCACCTAGTGCAG,12000 fluorescence intensity (a.u.)
3,ATGCAGCCTCGACGCTTACTGTCACCACGATCGCATTCACCGGAGTCACCTAGTGCAG,11200 fluorescence intensity (a.u.)
4,CGACCGACCCTCGCCCGCCCACCGCCGTCACTCTCGTCTGCGGAGTCACCTAGTGCAG,10300 fluorescence intensity (a.u.)
5,GTGATGCTCTTAATCCTAGGCGCTGTTTAGTTTGTTCGACCGGAGTCACCTAGTGCAG,15600 fluorescence intensity (a.u.)
6,TACTTATCTACTGTTTTATCCCTTTTTGTTTCTGTTTCTTCGGAGTCACCTAGTGCAG,13400 fluorescence intensity (a.u.)
7,CTCAACTTCTACTATCTTATTTTCCGCATGTATGTTTCTCCGGAGTCACCTAGTGCAG,9380 fluorescence intensity (a.u.)
8,CACGTTAGATTATCCCAACTGAATCCCTGTTCCACCTTATCGGAGTCACCTAGTGCAG,10500 fluorescence intensity (a.u.)
9,CGCTTATTAGCTTCTTCTTTTCATTCCGATTTGGTGGGGTCGGAGTCACCTAGTGCAG,9670 fluorescence intensity (a.u.)
10,TGGATGGTACTCCCTCCTCTAAATGTTTGACGCCGTTGACCGGAGTCACCTAGTGCAG,14400 fluorescence intensity (a.u.)
11,CCATCCTTGATGCGGCGTCGATCTACACGCTTATCGGTAGCGGAGTCACCTAGTGCAG,8510 fluorescence intensity (a.u.)
12,TATACAATTGCCTTACCTGTCCCCACCTGTCACATGCCTCCGGAGTCACCTAGTGCAG,9460 fluorescence intensity (a.u.)
13,TAAATCCCCAATACTCCGTATCATAGATCTTCACCTCTCACGGAGTCACCTAGTGCAG,9840 fluorescence intensity (a.u.)
14,GGTGGGATGGTTTTTGTGTGTTTGCAAACCTGCAAGCACTCGGAGTCACCTAGTGCAG,12200 fluorescence intensity (a.u.)
15,AGTTTTACTCATTCATCATTCATCATGTCACACATCCAACCGGAGTCACCTAGTGCAG,8500 fluorescence intensity (a.u.)
16,CTGGTTGCAGCTACCACCGTTCAACCATGCAATCACACGTCGGAGTCACCTAGTGCAG,9160 fluorescence intensity (a.u.)
17,CGTTTTATCCTCAAAAGCCGAGCTATCCTTATCCCAAAACCGGAGTCACCTAGTGCAG,8480 fluorescence intensity (a.u.)
18,TCCTAATTTCACCATTATCTTGAAGCTCCACTTGCTACCACGGAGTCACCTAGTGCAG,8040 fluorescence intensity (a.u.)
19,CAGTTTTGTGGATCGGATTGTGTTTGTGATCTTCCACCAACGGAGTCACCTAGTGCAG,8480 fluorescence intensity (a.u.)
20,ACACCTCCGCACCGGACGTCCGGACCCCATACACCTCCGCCGGAGTCACCTAGTGCAG,10500 fluorescence intensity (a.u.)
21,TTCCTCCTGCGGTCCCGCCCAACCCAAACCTCTCACCATGCGGAGTCACCTAGTGCAG,8060 fluorescence intensity (a.u.)

row,Sequence,binding signal
1,GCCGCATCCATCGCGAAGGCTACTCTACCCATCCCATTTTCGGAGTCACCTAGTGCAG,9260 fluorescence intensity (a.u.)
2,GGGTGTGTTTTTTTTCCAAAGGAATGGAACCATTCCATTCCGGAGTCACCTAGTGCAG,9230 fluorescence intensity (a.u.)
3,ATTCTTCTCCATGCTTTAGCATCCAAGCTCCAGTTTCACCCGGAGTCACCTAGTGCAG,8530 fluorescence intensity (a.u.)
4,TCTTCATATCTTCTTTCCAACTACCACACCACACACGAAACGGAGTCACCTAGTGCAG,8300 fluorescence intensity (a.u.)
5,CATGTCGACGTTTGGATGGGTTTTAGATTTGTGTCATTTTCGGAGTCACCTAGTGCAG,10800 fluorescence intensity (a.u.)
6,TTCGAAATGTTTGACGCCGTTGACTTTTTAGCATATGTTTCGGAGTCACCTAGTGCAG,13200 fluorescence intensity (a.u.)
7,CCATTAGCAAACCTCGCCGATTCTCTCTCTCGATCGAACACGGAGTCACCTAGTGCAG,9130 fluorescence intensity (a.u.)
8,GTTGTTTGTTTGAGACTCTGTTCCTTTTGGCTTGGTTTTCCGGAGTCACCTAGTGCAG,12700 fluorescence intensity (a.u.)
9,TCAATCCACTACCAGTCTCTGACCGACGTGTTTTGTGCATCGGAGTCACCTAGTGCAG,8730 fluorescence intensity (a.u.)
10,ATCTTTCTCCGGTCAAGTTCTAGCACAACAAAACACAAGCCGGAGTCACCTAGTGCAG,8060 fluorescence intensity (a.u.)
11,CTGCTTGGCTGCCATCCCCTGCTATTCCCCAACCTCCTCCCGGAGTCACCTAGTGCAG,8340 fluorescence intensity (a.u.)
12,GGTAGCCGGGAGGGAGGGGAAGCGGCGGCGTTTGTTTCTGCGGAGTCACCTAGTGCAG,10300 fluorescence intensity (a.u.)
13,TAAGTCTATTTTACATCCCTATTCTTTCGACCGTGGCATACGGAGTCACCTAGTGCAG,8970 fluorescence intensity (a.u.)
14,CTTTTTTTTCTTTTTTCTTTTTTCTTTTTTTTCTTTTGAGCGGAGTCACCTAGTGCAG,12300 fluorescence intensity (a.u.)
15,CTACCGACCACACCCCGTCCAGTCCGGTCTCCATCGCTTTCGGAGTCACCTAGTGCAG,8530 fluorescence intensity (a.u.)
16,TTTTGCTATCTTCTCGCTGCGATCGCCACAAATTGACATGCGGAGTCACCTAGTGCAG,9570 fluorescence intensity (a.u.)
17,CATCCCTCTTGGTCCCGCACTCTCTCGCGTGGAGCTTATCCGGAGTCACCTAGTGCAG,8830 fluorescence intensity (a.u.)
18,AGAGGAGGAGAGTGGTGGTGGTGCGAGAGGGAGGGAGATGCGGAGTCACCTAGTGCAG,9230 fluorescence intensity (a.u.)
19,TACAACTCTGTTTCTTACTTTCTGTTTGCGTCTTTGCCTTCGGAGTCACCTAGTGCAG,8050 fluorescence intensity (a.u.)
20,CGTCCTGTTACAGAATCTACTTGTATCGCGTAATATCGAGCGGAGTCACCTAGTGCAG,8980 fluorescence intensity (a.u.)
21,GGCGACCTGCGCGCGCTCCATTGCTGCTTCCGGCGCCGTGCGGAGTCACCTAGTGCAG,9220 fluorescence intensity (a.u.)

# Given bar-delimited: entries from further up.
row | Sequence | binding signal
2 | GGGTGTGTTTTTTTTCCAAAGGAATGGAACCATTCCATTCCGGAGTCACCTAGTGCAG | 9230 fluorescence intensity (a.u.)
6 | TTCGAAATGTTTGACGCCGTTGACTTTTTAGCATATGTTTCGGAGTCACCTAGTGCAG | 13200 fluorescence intensity (a.u.)
11 | CTGCTTGGCTGCCATCCCCTGCTATTCCCCAACCTCCTCCCGGAGTCACCTAGTGCAG | 8340 fluorescence intensity (a.u.)
